Results taken from publication PMC5770370.
Results are given in words; binding and its absence hold for the method and conditions named. In cells and extracts the contact can be indirect. Some results given as binding are weak or reduced against the parent protein; the word gives no strength.

The chains behind the UniProt entries cited, without tags or fusion partners.
UniProt Q9Z1E3: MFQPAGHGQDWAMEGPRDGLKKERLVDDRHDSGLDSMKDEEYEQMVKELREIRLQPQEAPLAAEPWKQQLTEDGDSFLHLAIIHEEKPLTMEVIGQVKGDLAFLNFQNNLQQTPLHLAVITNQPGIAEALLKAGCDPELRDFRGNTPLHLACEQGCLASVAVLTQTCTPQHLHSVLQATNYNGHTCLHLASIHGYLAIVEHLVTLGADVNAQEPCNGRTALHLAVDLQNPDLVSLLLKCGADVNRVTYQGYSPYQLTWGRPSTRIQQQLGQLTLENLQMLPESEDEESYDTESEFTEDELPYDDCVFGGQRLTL
UniProt Q04207: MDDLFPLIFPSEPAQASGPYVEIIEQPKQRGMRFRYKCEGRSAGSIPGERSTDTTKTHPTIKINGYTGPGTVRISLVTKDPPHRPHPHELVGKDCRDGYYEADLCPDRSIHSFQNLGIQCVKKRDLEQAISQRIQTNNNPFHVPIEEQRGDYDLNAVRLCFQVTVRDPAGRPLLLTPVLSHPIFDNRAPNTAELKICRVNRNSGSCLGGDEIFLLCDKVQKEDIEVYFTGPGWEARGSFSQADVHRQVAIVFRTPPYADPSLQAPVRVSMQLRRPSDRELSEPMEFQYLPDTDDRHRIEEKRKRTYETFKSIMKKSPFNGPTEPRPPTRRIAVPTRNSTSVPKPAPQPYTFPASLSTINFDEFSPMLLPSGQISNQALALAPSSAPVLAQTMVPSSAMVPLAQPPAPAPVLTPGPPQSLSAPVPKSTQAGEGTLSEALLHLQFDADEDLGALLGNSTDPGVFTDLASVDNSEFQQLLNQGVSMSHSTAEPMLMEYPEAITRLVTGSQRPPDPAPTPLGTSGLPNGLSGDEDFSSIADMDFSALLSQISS

Target: IκBα (mouse (endogenous in RAW264.7)) (UniProt Q9Z1E3)
Assay: co-IP; RAW264.7 cells lysed in NP40 buffer; lysate incubated with 2 μg IκBα antibody overnight, then 20 μL protein A/G agarose for 4 h at 4°C; washed with NP40 buffer, SDS-PAGE and western blotting; cells treated beforehand with bergenin (1-30 μM) or rosiglitazone (30 μM) for 24 h, with or without EX527 (1 μM) or GW9662 (10 μM), then LPS for 30 min

binding: binds
Substance: NF-κB-p65 (from UniProt Q04207 1-549)
